Data from the supplement of paper PMC10849652.
The list shows a part of the results. Residues, ends and D or L forms follow the SMILES beside them. *: point of attachment. Cbz = O=C(OCc1ccccc1)*

Protein sequences, listed by entry. Tags and fused reporters are not part of them. Lines headed by an entry give the natural chain unless they say otherwise; changes in a name come on top.
UniProt Q14687: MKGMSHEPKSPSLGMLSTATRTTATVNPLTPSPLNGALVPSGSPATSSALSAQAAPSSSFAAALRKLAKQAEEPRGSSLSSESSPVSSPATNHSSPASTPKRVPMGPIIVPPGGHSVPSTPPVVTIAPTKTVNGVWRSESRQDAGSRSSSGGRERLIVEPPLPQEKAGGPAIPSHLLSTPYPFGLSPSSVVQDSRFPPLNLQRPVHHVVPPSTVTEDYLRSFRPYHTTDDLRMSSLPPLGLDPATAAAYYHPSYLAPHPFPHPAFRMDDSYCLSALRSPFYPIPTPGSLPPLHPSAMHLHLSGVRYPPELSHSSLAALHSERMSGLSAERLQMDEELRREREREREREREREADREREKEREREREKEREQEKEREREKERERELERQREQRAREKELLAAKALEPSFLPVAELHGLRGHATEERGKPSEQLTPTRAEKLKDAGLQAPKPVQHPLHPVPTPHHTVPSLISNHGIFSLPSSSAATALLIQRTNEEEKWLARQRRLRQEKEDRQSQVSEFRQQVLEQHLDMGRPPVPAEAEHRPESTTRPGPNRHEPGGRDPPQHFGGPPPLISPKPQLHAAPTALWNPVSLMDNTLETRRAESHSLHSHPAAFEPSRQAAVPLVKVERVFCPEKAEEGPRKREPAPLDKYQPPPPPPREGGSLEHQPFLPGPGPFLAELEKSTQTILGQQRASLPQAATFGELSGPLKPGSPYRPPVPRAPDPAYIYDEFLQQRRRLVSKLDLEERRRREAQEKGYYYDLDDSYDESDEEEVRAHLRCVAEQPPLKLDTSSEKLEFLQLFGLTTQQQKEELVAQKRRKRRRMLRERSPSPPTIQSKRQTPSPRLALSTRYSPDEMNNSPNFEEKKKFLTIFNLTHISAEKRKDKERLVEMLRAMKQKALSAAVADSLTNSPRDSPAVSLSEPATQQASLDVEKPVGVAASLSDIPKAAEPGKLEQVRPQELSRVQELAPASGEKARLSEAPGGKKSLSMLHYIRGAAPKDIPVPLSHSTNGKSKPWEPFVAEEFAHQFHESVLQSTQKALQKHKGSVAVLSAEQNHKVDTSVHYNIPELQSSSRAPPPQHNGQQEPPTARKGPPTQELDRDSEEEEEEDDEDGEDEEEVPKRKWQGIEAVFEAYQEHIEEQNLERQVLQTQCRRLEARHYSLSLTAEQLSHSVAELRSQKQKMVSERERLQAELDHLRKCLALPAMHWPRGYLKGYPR
UniProt Q86V85: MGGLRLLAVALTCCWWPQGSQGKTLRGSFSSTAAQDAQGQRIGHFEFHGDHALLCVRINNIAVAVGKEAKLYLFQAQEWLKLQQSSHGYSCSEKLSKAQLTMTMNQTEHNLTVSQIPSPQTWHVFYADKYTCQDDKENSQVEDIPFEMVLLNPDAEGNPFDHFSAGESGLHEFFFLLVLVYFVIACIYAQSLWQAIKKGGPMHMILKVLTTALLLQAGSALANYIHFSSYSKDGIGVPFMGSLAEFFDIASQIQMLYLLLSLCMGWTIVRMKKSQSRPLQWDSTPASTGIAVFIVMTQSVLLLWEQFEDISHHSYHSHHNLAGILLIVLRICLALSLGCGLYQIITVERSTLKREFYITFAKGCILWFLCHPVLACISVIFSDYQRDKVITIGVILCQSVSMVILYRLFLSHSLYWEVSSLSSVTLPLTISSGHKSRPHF
UniProt O94923: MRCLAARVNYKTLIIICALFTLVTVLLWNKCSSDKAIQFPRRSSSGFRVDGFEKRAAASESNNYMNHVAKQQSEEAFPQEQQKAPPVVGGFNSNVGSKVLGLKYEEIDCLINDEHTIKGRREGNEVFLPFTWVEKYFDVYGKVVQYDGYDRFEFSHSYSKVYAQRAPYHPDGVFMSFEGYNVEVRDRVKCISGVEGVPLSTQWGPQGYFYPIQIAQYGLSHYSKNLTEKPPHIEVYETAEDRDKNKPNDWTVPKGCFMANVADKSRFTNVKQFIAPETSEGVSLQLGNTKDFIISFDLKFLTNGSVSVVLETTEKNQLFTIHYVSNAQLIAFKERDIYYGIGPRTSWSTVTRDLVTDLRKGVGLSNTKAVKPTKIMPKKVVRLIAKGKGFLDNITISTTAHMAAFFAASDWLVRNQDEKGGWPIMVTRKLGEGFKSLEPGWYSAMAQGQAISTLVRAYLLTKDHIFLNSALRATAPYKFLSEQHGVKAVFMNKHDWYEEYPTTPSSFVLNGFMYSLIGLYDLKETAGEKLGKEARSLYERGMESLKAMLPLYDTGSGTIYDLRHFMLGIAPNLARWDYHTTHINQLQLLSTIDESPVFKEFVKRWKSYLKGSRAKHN
UniProt Q14956: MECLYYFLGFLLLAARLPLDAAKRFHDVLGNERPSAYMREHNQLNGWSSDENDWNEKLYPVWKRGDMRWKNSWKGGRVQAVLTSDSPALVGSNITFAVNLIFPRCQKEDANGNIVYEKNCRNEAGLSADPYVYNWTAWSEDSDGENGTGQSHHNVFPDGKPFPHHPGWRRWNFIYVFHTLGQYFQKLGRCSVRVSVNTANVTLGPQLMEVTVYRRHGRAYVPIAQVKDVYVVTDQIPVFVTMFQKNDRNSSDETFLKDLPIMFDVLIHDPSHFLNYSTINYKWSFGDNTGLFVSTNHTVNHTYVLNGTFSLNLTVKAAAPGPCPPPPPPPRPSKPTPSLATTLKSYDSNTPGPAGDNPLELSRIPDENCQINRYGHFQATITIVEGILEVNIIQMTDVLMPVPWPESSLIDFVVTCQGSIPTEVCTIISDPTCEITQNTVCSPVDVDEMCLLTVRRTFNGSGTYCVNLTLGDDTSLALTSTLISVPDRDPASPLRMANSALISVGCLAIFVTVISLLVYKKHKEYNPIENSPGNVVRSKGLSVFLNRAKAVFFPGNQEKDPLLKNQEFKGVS
UniProt Q92805: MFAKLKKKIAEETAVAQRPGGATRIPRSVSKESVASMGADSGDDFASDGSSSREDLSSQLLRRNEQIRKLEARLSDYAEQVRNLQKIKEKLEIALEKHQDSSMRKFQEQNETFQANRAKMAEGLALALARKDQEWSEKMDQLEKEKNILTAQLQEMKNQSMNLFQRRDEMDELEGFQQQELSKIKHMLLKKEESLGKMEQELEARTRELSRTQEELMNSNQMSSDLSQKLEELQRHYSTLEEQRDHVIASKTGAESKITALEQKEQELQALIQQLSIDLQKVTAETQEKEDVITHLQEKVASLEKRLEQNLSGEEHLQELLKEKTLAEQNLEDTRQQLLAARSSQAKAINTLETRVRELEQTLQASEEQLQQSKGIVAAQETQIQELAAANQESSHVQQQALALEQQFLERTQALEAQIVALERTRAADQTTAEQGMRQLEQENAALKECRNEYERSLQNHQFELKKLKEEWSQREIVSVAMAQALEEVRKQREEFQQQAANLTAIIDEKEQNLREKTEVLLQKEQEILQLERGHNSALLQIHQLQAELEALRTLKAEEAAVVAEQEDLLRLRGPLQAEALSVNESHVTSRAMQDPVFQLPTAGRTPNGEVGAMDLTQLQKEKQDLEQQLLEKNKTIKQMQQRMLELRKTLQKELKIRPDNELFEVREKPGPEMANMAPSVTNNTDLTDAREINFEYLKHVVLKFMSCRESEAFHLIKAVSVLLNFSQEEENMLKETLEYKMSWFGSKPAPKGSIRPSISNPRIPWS
UniProt Q9HCN6: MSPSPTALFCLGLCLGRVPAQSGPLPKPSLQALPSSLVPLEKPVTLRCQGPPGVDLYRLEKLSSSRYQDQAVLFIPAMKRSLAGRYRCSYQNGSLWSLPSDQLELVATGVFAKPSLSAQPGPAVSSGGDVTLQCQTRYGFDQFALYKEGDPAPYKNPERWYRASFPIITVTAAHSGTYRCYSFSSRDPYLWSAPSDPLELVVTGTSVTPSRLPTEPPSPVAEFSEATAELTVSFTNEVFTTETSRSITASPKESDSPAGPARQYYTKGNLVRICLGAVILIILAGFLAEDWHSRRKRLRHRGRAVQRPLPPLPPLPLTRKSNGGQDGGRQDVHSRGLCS
UniProt Q96CP6, whole entry, looked up: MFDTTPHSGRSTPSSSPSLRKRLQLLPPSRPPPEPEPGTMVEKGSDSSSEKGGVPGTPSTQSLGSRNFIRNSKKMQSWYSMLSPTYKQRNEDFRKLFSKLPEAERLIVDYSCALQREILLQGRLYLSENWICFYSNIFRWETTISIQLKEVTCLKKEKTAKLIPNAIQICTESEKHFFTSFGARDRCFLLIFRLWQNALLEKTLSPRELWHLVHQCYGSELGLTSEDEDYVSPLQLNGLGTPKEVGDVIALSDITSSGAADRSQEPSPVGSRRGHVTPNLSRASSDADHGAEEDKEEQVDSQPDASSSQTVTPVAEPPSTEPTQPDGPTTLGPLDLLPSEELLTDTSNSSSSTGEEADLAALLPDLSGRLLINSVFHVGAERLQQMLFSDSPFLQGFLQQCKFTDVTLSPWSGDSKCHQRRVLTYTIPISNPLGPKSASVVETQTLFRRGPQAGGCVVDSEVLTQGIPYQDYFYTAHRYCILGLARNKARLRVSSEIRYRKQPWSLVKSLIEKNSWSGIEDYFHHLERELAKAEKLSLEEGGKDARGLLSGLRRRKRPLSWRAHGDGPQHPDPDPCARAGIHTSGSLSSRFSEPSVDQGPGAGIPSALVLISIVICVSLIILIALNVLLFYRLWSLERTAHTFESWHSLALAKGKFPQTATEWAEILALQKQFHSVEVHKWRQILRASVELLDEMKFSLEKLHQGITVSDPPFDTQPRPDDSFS
UniProt Q9NU53: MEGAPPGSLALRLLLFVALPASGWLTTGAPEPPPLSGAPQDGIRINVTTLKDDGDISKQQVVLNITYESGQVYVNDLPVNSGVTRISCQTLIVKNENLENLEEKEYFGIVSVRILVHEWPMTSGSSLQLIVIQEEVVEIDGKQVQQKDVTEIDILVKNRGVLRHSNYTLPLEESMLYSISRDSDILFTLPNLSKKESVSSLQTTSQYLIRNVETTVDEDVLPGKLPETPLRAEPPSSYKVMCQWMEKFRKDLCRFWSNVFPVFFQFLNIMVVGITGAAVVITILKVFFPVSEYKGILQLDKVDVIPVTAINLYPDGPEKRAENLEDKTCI
UniProt Q9BQQ3: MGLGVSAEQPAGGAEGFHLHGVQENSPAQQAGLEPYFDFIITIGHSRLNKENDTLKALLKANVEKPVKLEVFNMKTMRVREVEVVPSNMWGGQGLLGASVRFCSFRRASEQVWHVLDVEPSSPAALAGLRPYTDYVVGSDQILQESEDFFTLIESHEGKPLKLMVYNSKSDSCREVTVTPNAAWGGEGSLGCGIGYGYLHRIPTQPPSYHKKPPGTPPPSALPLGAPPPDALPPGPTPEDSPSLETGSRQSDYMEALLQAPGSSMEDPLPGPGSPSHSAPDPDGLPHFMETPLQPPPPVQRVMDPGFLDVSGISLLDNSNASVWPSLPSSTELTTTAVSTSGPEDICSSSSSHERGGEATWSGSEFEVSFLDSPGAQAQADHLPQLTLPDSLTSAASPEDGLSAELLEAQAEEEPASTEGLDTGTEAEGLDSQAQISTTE
UniProt Q8WWB7: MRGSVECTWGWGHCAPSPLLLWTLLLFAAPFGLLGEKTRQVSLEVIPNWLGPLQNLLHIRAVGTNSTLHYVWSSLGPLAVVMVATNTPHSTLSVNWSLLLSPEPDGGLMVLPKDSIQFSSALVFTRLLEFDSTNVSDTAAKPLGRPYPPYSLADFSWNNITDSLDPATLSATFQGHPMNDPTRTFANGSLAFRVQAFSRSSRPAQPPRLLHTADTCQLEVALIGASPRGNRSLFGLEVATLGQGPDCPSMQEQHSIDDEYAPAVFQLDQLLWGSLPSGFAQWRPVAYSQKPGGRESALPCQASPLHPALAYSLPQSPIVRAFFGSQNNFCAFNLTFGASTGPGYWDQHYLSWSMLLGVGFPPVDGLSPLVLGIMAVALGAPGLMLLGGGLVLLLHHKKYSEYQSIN
UniProt P43250, whole entry, looked up: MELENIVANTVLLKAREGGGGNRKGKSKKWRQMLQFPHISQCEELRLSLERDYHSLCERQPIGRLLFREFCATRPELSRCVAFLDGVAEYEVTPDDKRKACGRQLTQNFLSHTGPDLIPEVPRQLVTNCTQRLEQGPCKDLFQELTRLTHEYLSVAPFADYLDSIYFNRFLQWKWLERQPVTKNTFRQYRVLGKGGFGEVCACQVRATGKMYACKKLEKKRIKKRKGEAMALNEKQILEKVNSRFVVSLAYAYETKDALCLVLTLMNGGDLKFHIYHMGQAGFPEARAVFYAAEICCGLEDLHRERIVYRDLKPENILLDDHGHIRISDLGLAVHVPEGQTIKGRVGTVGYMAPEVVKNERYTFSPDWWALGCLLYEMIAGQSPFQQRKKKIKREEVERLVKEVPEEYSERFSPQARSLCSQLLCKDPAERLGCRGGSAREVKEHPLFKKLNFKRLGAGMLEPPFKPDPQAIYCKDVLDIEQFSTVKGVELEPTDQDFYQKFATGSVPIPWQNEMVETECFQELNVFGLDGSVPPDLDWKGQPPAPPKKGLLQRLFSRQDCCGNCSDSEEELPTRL

How the values were obtained:
Assay in all cases: log2 fold change, soluble protein after heating vs DMSO (PISA); higher = thermal stabilisation; K562 cells, 10 uM, 30 min; active = over 0.2 and 3.5 SD of the protein, either way, in both replicates (recomputed)
ibrutinib = compound: C=CC(=O)N1CCC[C@@H](n2nc(-c3ccc(Oc4ccccc4)cc3)c3c(N)ncnc32)C1 [ibrutinib]
Method in brief: (§1)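 K562 cells at 2×10^6 cells/mL were given 10 μM compound for 30 min. Aliquots then went through 3 min of heating across 48°C-58°C, were pooled, and were extracted in PBS with 0.5% NP-40 at 4°C, and the supernatant after 21,000xg for 90 min was quantified by TMTpro 16plex LC-MS/MS with channel sums equalised. Thermal stability relative to control samples, from duplicates, is given as log2 fold change.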

ralimetinib = compound: CC(C)(C)Cn1c(N)nc2ccc(-c3[nH]c(C(C)(C)C)nc3-c3ccc(F)cc3)nc21 [ralimetinib]
Method in brief: as §1

[1] = compound: CC(C)C[C@@H](C=O)NC(=O)[C@H](CC(C)C)NC(=O)[C@H](CC(C)C)NC(=O)OCc1ccccc1
Method in brief: as §1

[2] = compound: CC1=C(C=C(C=C1)NC(=O)C2=CC(=CC=C2)N(C)C)NC(=O)C3=CC=C(C=C3)O
Method in brief: as §1

vemurafenib = compound: CCCS(=O)(=O)Nc1ccc(F)c(C(=O)c2c[nH]c3ncc(-c4ccc(Cl)cc4)cc23)c1F [vemurafenib]
Method in brief: as §1

barasertib = compound: CCN(CCCOc1ccc2c(Nc3cc(CC(=O)Nc4cccc(F)c4)[nH]n3)ncnc2c1)CCOP(=O)(O)O [barasertib]
Method in brief: as §1

[3] = compound: CC(C)C1=C2N=C(C=C(N2N=C1)NCC3=CC=CC=C3)NCCCCCCN
Method in brief: as §1

[4] = compound: CC1=C(C2=C(C=C1)C(=O)C3=CC=CC=C3N2CCCN)C
Method in brief: as §1

givinostat = compound: CCN(CC)Cc1ccc2cc(COC(=O)Nc3ccc(C(=O)NO)cc3)ccc2c1 [givinostat]
Method in brief: as §1

[5] = compound: CC(C)(O)CC(=O)NCCn1ccc2ncnc(Nc3ccc(Oc4cccc(C(F)(F)F)c4)c(Cl)c3)c21
Method in brief: as §1

Nexturastat A = compound: CCCCN(Cc1ccc(C(=O)NO)cc1)C(=O)Nc1ccccc1 [Nexturastat A]
Method in brief: as §1

[6] = compound: CC(=O)c1cnc2ccc(-c3cc(Cl)c(O)c(Cl)c3)nc2c1N[C@H]1CC[C@H](CN(C)C)CC1
Method in brief: as §1

[7] = compound: CC1=C(C=C(C=C1)NC(=O)C2=CC(=CC=C2)C(C)(C)C#N)NC3=CC4=C(C=C3)N=CN(C4=O)C
Method in brief: as §1

[8] = compound: CC1=CC=C(C=C1)SC2=C3C=C(SC3=CN=C2)C(=O)N
Method in brief: as §1

[9] = compound: CCCS(=O)(=O)Nc1ccc(F)c(C(=O)c2c[nH]c3ncc(Cl)cc23)c1F
Method in brief: as §1

[10] = compound: CCCc1cc(C)[nH]c(=O)c1CNC(=O)c1cc(-c2ccnc(N3CCN(C)CC3)c2)cc2c1cnn2C(C)C
Method in brief: as §1

[11] = compound: CC1=C(C(CC(=O)N1)C2=CC=C(C=C2)C(F)(F)F)C(=O)NC3=C(C=C4C(=C3)C=NN4)F
Method in brief: as §1

IRAK-1-4 Inhibitor I = compound: C1COCCN1CCN2C3=CC=CC=C3N=C2NC(=O)C4=CC(=CC=C4)[N+](=O)[O-] [IRAK-1-4 Inhibitor I]
Method in brief: as §1

pinometostat = compound: CC(C)N(C[C@H]1O[C@@H](n2cnc3c(N)ncnc32)[C@H](O)[C@@H]1O)[C@H]1C[C@@H](CCc2nc3cc(C(C)(C)C)ccc3[nH]2)C1 [pinometostat]
Method in brief: as §1

[12] = compound: CC1=NC(=CC=C1)C2=C(N=C(N2)C(C)(C)C)C3=CC4=NC=CN=C4C=C3
Method in brief: as §1

With GSE1 (UniProt Q14687) the log2 fold change (ibrutinib) was inactive: 0.057, the log2 fold change (ralimetinib) was inactive: -0.065 and the log2 fold change [1] was inactive: 0.003. For the same target, the log2 fold change [2] was inactive: 0.071, the log2 fold change (vemurafenib) was inactive: -0.13 and the log2 fold change (barasertib) was inactive: 0.232.
GPATCH2L (UniProt Q9NWQ4) was tested, and the log2 fold change [3] was inactive: -0.39, the log2 fold change [4] was inactive: -0.093 and the log2 fold change (givinostat) was inactive: -0.144.
With GSDME (UniProt O60443) the log2 fold change [5] was inactive: 0.046, the log2 fold change [3] was inactive: -0.187 and the log2 fold change (Nexturastat A) was inactive: 0.054. For the same target, the log2 fold change (givinostat) was inactive: -0.147.
With GPR180 (UniProt Q86V85) the log2 fold change (ibrutinib) was inactive: -0.534, the log2 fold change [6] was inactive: -0.134 and the log2 fold change [5] was inactive: -0.07. The log2 fold change [4] was inactive: 0.113, the log2 fold change [7] was inactive: 0.033 and the log2 fold change [8] was inactive: -0.035. For the same target, the log2 fold change (Nexturastat A) was inactive: -0.031, the log2 fold change (vemurafenib) was inactive: 0.139 and the log2 fold change [9] was inactive: 0.067. For the same target, the log2 fold change [10] was inactive: -0.147 and the log2 fold change (barasertib) was inactive: 0.407.
GOSR1 (UniProt E9PCW1) was tested, and the log2 fold change (ibrutinib) was inactive: 0.039, the log2 fold change [3] was inactive: -0.246 and the log2 fold change [8] was inactive: -0.022. The log2 fold change [9] was inactive: 0.052, the log2 fold change [10] was inactive: 0.089 and the log2 fold change (givinostat) was inactive: -0.038. The log2 fold change (barasertib) was inactive: 0.123.
GNL2 (UniProt Q13823) was tested, and the log2 fold change (ibrutinib) was inactive: 0.297, the log2 fold change (ralimetinib) was inactive: -0.003 and the log2 fold change [5] was inactive: 0.092. For the same target, the log2 fold change [1] was inactive: 0.055, the log2 fold change [4] was inactive: -0.009 and the log2 fold change [2] was inactive: 0.103. For the same target, the log2 fold change (Nexturastat A) was inactive: 0.388, the log2 fold change [10] was inactive: 0.118 and the log2 fold change (barasertib) was inactive: 0.177.
For GLT8D1 (UniProt Q68CQ7), the log2 fold change [6] was inactive: -0.168 and the log2 fold change [11] was inactive: 0.006.
In the case of GLCE (UniProt O94923), the log2 fold change (IRAK-1-4 Inhibitor I) was inactive: 0.196, the log2 fold change (ibrutinib) was inactive: 0.021 and the log2 fold change [3] was inactive: -0.049. For the same target, the log2 fold change (pinometostat) was inactive: 0.038, the log2 fold change [11] was inactive: -0.221 and the log2 fold change [7] was inactive: -0.024. The log2 fold change [8] was inactive: 0.099, the log2 fold change [12] was inactive: 0.018 and the log2 fold change [9] was inactive: -0.034. The log2 fold change (givinostat) was inactive: -0.069 and the log2 fold change (barasertib) was inactive: 0.05.
In the case of GPCPD1 (UniProt Q9NPB8), the log2 fold change (ralimetinib) was inactive: 0.066, the log2 fold change [5] was inactive: -0.107 and the log2 fold change [1] was inactive: -0.184. For the same target, the log2 fold change [7] was inactive: 0.039, the log2 fold change [2] was inactive: 0.076 and the log2 fold change [8] was inactive: 0.054. The log2 fold change (Nexturastat A) was inactive: 0.288, the log2 fold change [9] was inactive: 0.06 and the log2 fold change [10] was inactive: 0.05.
GPNMB (UniProt Q14956) was tested, and the log2 fold change [5] was inactive: 0, the log2 fold change [3] was inactive: 0.108 and the log2 fold change (Nexturastat A) was active: 1.64. The log2 fold change (givinostat) was inactive: 0.671.
For GOLGA1 (UniProt Q92805), the log2 fold change [6] was inactive: -0.032, the log2 fold change (ralimetinib) was inactive: -0.044 and the log2 fold change [3] was inactive: -0.045. The log2 fold change [1] was inactive: 0.054, the log2 fold change [2] was inactive: -0.072 and the log2 fold change [8] was inactive: 0.067. For the same target, the log2 fold change (vemurafenib) was inactive: 0.289, the log2 fold change [9] was inactive: -0.065 and the log2 fold change (givinostat) was inactive: 0.04.
In the case of GP6 isoform 3 (UniProt Q9HCN6), the log2 fold change (IRAK-1-4 Inhibitor I) was inactive: 0.135, the log2 fold change (ibrutinib) was inactive: 0.166 and the log2 fold change [3] was inactive: -0.14. For the same target, the log2 fold change (pinometostat) was inactive: -0.176, the log2 fold change [12] was inactive: 0.047 and the log2 fold change [10] was inactive: -0.082. For the same target, the log2 fold change (givinostat) was inactive: 0 and the log2 fold change (barasertib) was inactive: 0.071.
With GRAMD1A (UniProt Q96CP6) the log2 fold change (ibrutinib) was inactive: -0.251, the log2 fold change [5] was inactive: 0.011 and the log2 fold change (Nexturastat A) was inactive: 0.115. The log2 fold change (barasertib) was inactive: 0.037.
With GINM1 (UniProt Q9NU53) the log2 fold change (ibrutinib) was inactive: 0.127, the log2 fold change [5] was inactive: 0.007 and the log2 fold change [3] was inactive: 0.09. For the same target, the log2 fold change [11] was inactive: 0.165, the log2 fold change [7] was inactive: -0.059 and the log2 fold change [8] was inactive: -0.002. The log2 fold change (Nexturastat A) was inactive: 0.103, the log2 fold change [9] was inactive: 0.029 and the log2 fold change [10] was inactive: -0.079. For the same target, the log2 fold change (givinostat) was inactive: 0.168 and the log2 fold change (barasertib) was inactive: -0.085.
For GORASP1 (UniProt Q9BQQ3), the log2 fold change [5] was inactive: 0, the log2 fold change [8] was inactive: 0.08 and the log2 fold change (Nexturastat A) was inactive: 0.224. For the same target, the log2 fold change [9] was inactive: 0.059.
With GLMP (UniProt Q8WWB7) the log2 fold change (IRAK-1-4 Inhibitor I) was inactive: 0.062, the log2 fold change [6] was inactive: -0.037 and the log2 fold change (ralimetinib) was inactive: -0.081. The log2 fold change [5] was inactive: -0.03, the log2 fold change [1] was inactive: 0.131 and the log2 fold change (pinometostat) was inactive: -0.104. The log2 fold change [11] was inactive: 0.005, the log2 fold change [4] was inactive: 0.025 and the log2 fold change [7] was inactive: -0.046. The log2 fold change [2] was inactive: 0.022, the log2 fold change [8] was inactive: -0.03 and the log2 fold change [12] was inactive: -0.124. For the same target, the log2 fold change (Nexturastat A) was inactive: 0.053, the log2 fold change (vemurafenib) was inactive: 0 and the log2 fold change [9] was inactive: 0.033. For the same target, the log2 fold change [10] was inactive: 0.011.
With GPX3 (UniProt P22352) the log2 fold change (ibrutinib) was inactive: 0.022, the log2 fold change [6] was inactive: -0.128 and the log2 fold change (ralimetinib) was inactive: -0.207. For the same target, the log2 fold change [5] was inactive: 0.049, the log2 fold change [3] was inactive: 0.113 and the log2 fold change [1] was inactive: 0.076. The log2 fold change [4] was inactive: -0.08, the log2 fold change [2] was inactive: -0.021 and the log2 fold change [8] was inactive: 0.066. For the same target, the log2 fold change (Nexturastat A) was inactive: 0.195, the log2 fold change (vemurafenib) was inactive: 0.013 and the log2 fold change [9] was inactive: -0.099. For the same target, the log2 fold change (givinostat) was inactive: -0.081 and the log2 fold change (barasertib) was inactive: -0.081.
In the case of GOLIM4 (UniProt F8W785), the log2 fold change (IRAK-1-4 Inhibitor I) was inactive: 0.087, the log2 fold change (ibrutinib) was inactive: -0.024 and the log2 fold change [5] was inactive: 0.06. The log2 fold change (pinometostat) was inactive: 0.019, the log2 fold change [11] was inactive: -0.056 and the log2 fold change [4] was inactive: 0.003. The log2 fold change [7] was inactive: 0.036, the log2 fold change [12] was inactive: 0.013 and the log2 fold change (Nexturastat A) was inactive: -0.092. For the same target, the log2 fold change (vemurafenib) was inactive: -0.062 and the log2 fold change (barasertib) was inactive: 0.07.
With GOLPH3L (UniProt Q9H4A5) the log2 fold change (IRAK-1-4 Inhibitor I) was inactive: -0.294, the log2 fold change [6] was inactive: 0.035 and the log2 fold change [5] was inactive: 0.013. For the same target, the log2 fold change (pinometostat) was inactive: 0.273, the log2 fold change [7] was inactive: -0.126 and the log2 fold change [12] was inactive: -0.196. For the same target, the log2 fold change (Nexturastat A) was inactive: 0.252, the log2 fold change (vemurafenib) was inactive: 0.1 and the log2 fold change [10] was inactive: 0.036.
In the case of GRK6 isoform 2 (UniProt P43250), the log2 fold change (vemurafenib) was inactive: -0.043.
In the case of GREB1 (UniProt Q4ZG55), the log2 fold change (IRAK-1-4 Inhibitor I) was inactive: 0.04, the log2 fold change [6] was inactive: 0.037 and the log2 fold change [5] was inactive: -0.032. For the same target, the log2 fold change [3] was inactive: 0.26, the log2 fold change (pinometostat) was inactive: -0.095 and the log2 fold change [4] was inactive: 0.066. The log2 fold change [7] was inactive: -0.003, the log2 fold change [12] was inactive: -0.338 and the log2 fold change (Nexturastat A) was active: 0.755. For the same target, the log2 fold change (vemurafenib) was inactive: 0.047 and the log2 fold change (givinostat) was inactive: 0.294.
GNL3 (UniProt Q9BVP2) was tested, and the log2 fold change (ibrutinib) was inactive: 0.047, the log2 fold change [6] was inactive: 0.012 and the log2 fold change [5] was inactive: -0.007. The log2 fold change [4] was inactive: 0.066, the log2 fold change [7] was inactive: 0.002 and the log2 fold change (Nexturastat A) was active: 0.491. For the same target, the log2 fold change (vemurafenib) was inactive: -0.12, the log2 fold change [10] was inactive: -0.307 and the log2 fold change (barasertib) was inactive: 0.079.
